Experimental data from PMC12150175.
These are yes or no findings as the source states them, for the method shown. Binding seen in cells or lysates may run through a third protein. These calls come from enrichment with a bait or labelling near it, and not all partners need be listed. Where a sequence is shown, tags or fusion partners need not be part of it.

Amino acid sequences for entries named in this document (tags omitted).
UniProt P35579: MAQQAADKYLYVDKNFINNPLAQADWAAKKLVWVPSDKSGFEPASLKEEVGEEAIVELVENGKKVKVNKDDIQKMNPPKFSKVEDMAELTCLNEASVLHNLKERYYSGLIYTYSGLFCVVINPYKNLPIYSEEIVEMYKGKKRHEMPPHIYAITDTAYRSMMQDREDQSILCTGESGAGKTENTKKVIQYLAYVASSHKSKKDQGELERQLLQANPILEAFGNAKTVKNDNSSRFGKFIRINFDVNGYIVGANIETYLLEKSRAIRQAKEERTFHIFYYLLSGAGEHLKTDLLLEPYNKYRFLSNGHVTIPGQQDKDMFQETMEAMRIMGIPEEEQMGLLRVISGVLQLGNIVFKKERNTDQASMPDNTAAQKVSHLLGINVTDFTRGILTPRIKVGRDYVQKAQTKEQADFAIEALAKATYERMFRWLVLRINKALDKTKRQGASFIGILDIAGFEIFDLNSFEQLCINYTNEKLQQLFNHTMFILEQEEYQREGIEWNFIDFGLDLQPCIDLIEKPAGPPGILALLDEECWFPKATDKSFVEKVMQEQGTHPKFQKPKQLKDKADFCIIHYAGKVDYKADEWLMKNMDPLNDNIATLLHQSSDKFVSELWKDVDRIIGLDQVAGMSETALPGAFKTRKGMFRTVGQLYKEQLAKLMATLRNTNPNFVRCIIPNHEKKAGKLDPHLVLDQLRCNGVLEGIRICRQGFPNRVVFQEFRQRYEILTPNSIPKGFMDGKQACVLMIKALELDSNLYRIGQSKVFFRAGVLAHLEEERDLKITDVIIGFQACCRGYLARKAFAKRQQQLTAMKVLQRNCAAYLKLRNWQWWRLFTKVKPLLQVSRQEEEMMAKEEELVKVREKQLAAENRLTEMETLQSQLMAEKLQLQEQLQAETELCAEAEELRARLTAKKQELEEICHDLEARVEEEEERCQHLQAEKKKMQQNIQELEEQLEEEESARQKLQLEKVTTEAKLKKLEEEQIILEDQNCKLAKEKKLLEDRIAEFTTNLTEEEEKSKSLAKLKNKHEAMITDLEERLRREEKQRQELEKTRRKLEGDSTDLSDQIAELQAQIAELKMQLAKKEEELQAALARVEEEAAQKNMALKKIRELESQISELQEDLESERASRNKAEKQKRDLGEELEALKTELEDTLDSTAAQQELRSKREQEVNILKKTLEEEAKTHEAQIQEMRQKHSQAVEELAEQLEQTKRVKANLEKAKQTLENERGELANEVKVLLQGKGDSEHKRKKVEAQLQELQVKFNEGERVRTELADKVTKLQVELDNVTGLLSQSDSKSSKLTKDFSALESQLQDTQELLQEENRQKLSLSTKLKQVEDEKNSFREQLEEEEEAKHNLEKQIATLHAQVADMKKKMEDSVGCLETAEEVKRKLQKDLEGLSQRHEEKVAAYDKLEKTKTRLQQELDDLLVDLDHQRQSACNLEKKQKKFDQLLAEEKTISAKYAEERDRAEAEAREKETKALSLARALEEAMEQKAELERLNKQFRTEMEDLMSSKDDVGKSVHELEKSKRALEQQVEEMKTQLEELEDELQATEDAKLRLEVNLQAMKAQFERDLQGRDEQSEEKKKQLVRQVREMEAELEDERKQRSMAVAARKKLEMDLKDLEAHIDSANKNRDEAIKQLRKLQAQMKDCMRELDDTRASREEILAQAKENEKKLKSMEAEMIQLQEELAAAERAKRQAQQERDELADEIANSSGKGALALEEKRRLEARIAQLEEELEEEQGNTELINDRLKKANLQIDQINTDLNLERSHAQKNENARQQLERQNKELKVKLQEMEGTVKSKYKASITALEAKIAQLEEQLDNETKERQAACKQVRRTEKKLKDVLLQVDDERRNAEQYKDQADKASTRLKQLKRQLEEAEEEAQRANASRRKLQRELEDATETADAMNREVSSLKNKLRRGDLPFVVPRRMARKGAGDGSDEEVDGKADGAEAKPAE

Target: T1, MOTS-c fused with green fluorescent protein (MOTS-c-GFP) (human)
T1 sequence: MRWQEMGYIFYPRKLR
Test: affinity purification with mass spectrometry; MOTS-c-GFP immunoprecipitated from lysates of normoxic and HR-treated HPMVECs stably expressing MOTS-c-GFP; Protein A/G magnetic beads (Pierce MS-Compatible Magnetic IP Kit); LC-MS/MS

Row | binding | Substance
1 | binds | MYH9 phosphorylated at Ser1943 (p-MYH9) (from UniProt P35579 1-1960)
2 | binds | myosin heavy chain 9 (MYH9) (from UniProt P35579 1-1960)
